Results: PMC7819943, “Rice protein-binding microarrays: a tool to detect cis-acting elements near promoter regions in rice”
The list shows a part of the results.

By UniProt entry, the sequences of proteins in these tests, tags left out.
UniProt Q0JBA9, entry or part of it: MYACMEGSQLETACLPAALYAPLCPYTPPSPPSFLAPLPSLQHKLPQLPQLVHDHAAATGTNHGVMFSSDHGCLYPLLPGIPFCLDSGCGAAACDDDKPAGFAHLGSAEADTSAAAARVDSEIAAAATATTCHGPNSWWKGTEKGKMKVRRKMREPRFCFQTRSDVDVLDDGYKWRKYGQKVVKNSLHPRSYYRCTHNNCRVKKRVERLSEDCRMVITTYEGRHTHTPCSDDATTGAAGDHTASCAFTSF

Each sequence was assayed against OsWRKY34 (Oryza sativa, UniProt Q0JBA9 1-250) (assay: protein-binding microarray (RPBM); PBS, 2% BSA, 51.3 ng/ul salmon testes DNA, 50 uM zinc acetate, 200 nM TF, 25 C, 1 h; high values mean tight binding). Details: protein: recombinant; tags: N-terminal polyhistidine and DsRed monomer fusion (pET32a); label: CyDye5-dUTP incorporated in the synthesized complementary strand; 3' TTTTT single-stranded linker to array surface; dsDNA, one strand shown.
Procedure, shortened: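 A custom Agilent array was converted to double-stranded form by primer extension with Cy5-dUTP and blocked with 2% BSA. Protein at 200 nM in PBS with 2% BSA, salmon testes DNA and 50 µM zinc acetate was applied for 1 h at 25 °C, followed by washing. The proteins were polyhistidine–DsRed N-terminal fusions of transcription factors, expressed in E. coli BL21-CodonPlus and Ni–NTA-purified. The binding signal is per-feature fluorescence intensity (arbitrary units) from an Axon 4000B scanner.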
“TCCAGTCCGCCGCCCCTACGCCGGTCACCATCGCCGTCATCGGAGTCACCTAGTGCAG” was tested, and the binding signal was 10100 fluorescence intensity (a.u.). For “ATACTTAAATTTAATGCTACTTATCACATGATGTCTTGGACGGAGTCACCTAGTGCAG”, the binding signal was 8330 fluorescence intensity (a.u.). For “ACGGCGCGGCGGGGCGACCAGGAGGGGCGGGGTGGCGCGGCGGAGTCACCTAGTGCAG”, the binding signal was 13300 fluorescence intensity (a.u.). In the case of “GCTGCCGCTCTTCGCCTCTTTTCCGGCCTTCTTTTGATCACGGAGTCACCTAGTGCAG”, the binding signal is reported as 11700 fluorescence intensity (a.u.). For “AATCATCTCATTTCTTCTGCTGGTTCCCTACTCTAGCTCGCGGAGTCACCTAGTGCAG”, the binding signal was 8760 fluorescence intensity (a.u.). With “TTTTGGAGGTGTTACAGGGGTAAGTATGTGCGTTTGCATGCGGAGTCACCTAGTGCAG” the binding signal was 8720 fluorescence intensity (a.u.). With “CTCTAGTGTTCTTGGCGCCTGCGCGCAAGCTTGCGCTACTCGGAGTCACCTAGTGCAG” the binding signal was 8340 fluorescence intensity (a.u.). “AGCAGCAGCAGCAAGTGTCCCTGTGTCCGTCTCCGCTTCTCGGAGTCACCTAGTGCAG” was tested, and the binding signal was 9210 fluorescence intensity (a.u.). “CGATCGAGCTAGCCACGCGCCTCTCTCTCTCTCTTTCCTCCGGAGTCACCTAGTGCAG” was tested, and the binding signal was 11000 fluorescence intensity (a.u.). “ATTTCTCCTGTTCCTCTTCTGCATTCGTCTCTTGAGAGTTCGGAGTCACCTAGTGCAG” was tested, and the binding signal was 11300 fluorescence intensity (a.u.). In the case of “ACTAATTTACCCTCTGCCATTTTGACGCGCTCTATCGTGCCGGAGTCACCTAGTGCAG”, the binding signal is reported as 8610 fluorescence intensity (a.u.). In the case of “CCCCTTTTGTTTCCATGCGGTCTGTACGTGGAACCGCATGCGGAGTCACCTAGTGCAG”, the binding signal is reported as 8320 fluorescence intensity (a.u.). In the case of “ACAGTGGTATGATGGTGTTCATGCCTTTCTTGCCTTCCATCGGAGTCACCTAGTGCAG”, the binding signal is reported as 8710 fluorescence intensity (a.u.). For “AATTCATTAGCTTTGCGCCGCCACCACCATAACCCCTAACCGGAGTCACCTAGTGCAG”, the binding signal was 11800 fluorescence intensity (a.u.). With “ACCGGTCACCTTTGTCTTCTTCCATCTTCTCCTCCCTTTACGGAGTCACCTAGTGCAG” the binding signal was 10000 fluorescence intensity (a.u.). “TGCTAGTCTTTTCTTCTTCTTTTTTCACTATCACGCAATTCGGAGTCACCTAGTGCAG” was tested, and the binding signal was 13100 fluorescence intensity (a.u.). “GCAACCTATTAAATGGTATTTTACCCTTGGCATTCTAGTCCGGAGTCACCTAGTGCAG” was tested, and the binding signal was 8170 fluorescence intensity (a.u.). For “CCAGCTGCGTGCAGCGTATCGCACCCAACCCGTCCATTCCCGGAGTCACCTAGTGCAG”, the binding signal was 8220 fluorescence intensity (a.u.). In the case of “CACCCACGCTGCTCGGCTCGACACACATCGCCGCCTCGCCCGGAGTCACCTAGTGCAG”, the binding signal is reported as 9220 fluorescence intensity (a.u.). “GTTAGAGTTTAACTTTTGGGCGTGGTTTCGATTTTTCTGCCGGAGTCACCTAGTGCAG” was tested, and the binding signal was 9490 fluorescence intensity (a.u.). For “GCATATTGCAAGTAGCTGTTATCTCTTGCTTTACCTCTTGCGGAGTCACCTAGTGCAG”, the binding signal was 8090 fluorescence intensity (a.u.). With “TCCACCACCACCTTCCTGTTCGGCTCGTCCTTCTTCTTCGCGGAGTCACCTAGTGCAG” the binding signal was 10400 fluorescence intensity (a.u.). “ATATCTGGTTTTACGGTTCGAGGACGTTTTTATATCCCGACGGAGTCACCTAGTGCAG” was tested, and the binding signal was 8110 fluorescence intensity (a.u.). With “CCCTTTCTTCACCATTTACTACTACTGCTCATCCTTCAAACGGAGTCACCTAGTGCAG” the binding signal was 8240 fluorescence intensity (a.u.). “ACACCCTCACATGTCCGTGCCTAACAGCCATCACACACGTCGGAGTCACCTAGTGCAG” was tested, and the binding signal was 9780 fluorescence intensity (a.u.). In the case of “ATTTGCAGTGATCGTTTCTATCTCCGGCGACGTTTCTTGACGGAGTCACCTAGTGCAG”, the binding signal is reported as 8430 fluorescence intensity (a.u.). “AATTTGCAAGCCACATGTTCTGGTGACTTTCACTCACTCACGGAGTCACCTAGTGCAG” was tested, and the binding signal was 9870 fluorescence intensity (a.u.). In the case of “CGATAAAGAAAAATGTGTTGTGTGGGTGACTGTTTGACTGCGGAGTCACCTAGTGCAG”, the binding signal is reported as 10900 fluorescence intensity (a.u.). For “TAATCTCGACTGCTCTCGCTCCTTGATCTGGTCTTCTTTTCGGAGTCACCTAGTGCAG”, the binding signal was 11900 fluorescence intensity (a.u.). With “CACTCTCTCTCTCTCTCACCTCCCTGACACTAAACTGGTTCGGAGTCACCTAGTGCAG” the binding signal was 8350 fluorescence intensity (a.u.). In the case of “TGAACAACTTTTCGTCATGTCTAACTTCCCTTTCAGCAAACGGAGTCACCTAGTGCAG”, the binding signal is reported as 8350 fluorescence intensity (a.u.). With “TTTTTTCTCGCACTGTTTAACCACTCGTCTTATTTAAAAACGGAGTCACCTAGTGCAG” the binding signal was 8330 fluorescence intensity (a.u.). “CTTGCTTTCTTTCACTGCTGCCATTCACAAATTGGCAAGACGGAGTCACCTAGTGCAG” was tested, and the binding signal was 8490 fluorescence intensity (a.u.). In the case of “CTCTCCTGCCCACGCTACTGTTCATCTTCCAGCGCCAGACCGGAGTCACCTAGTGCAG”, the binding signal is reported as 9820 fluorescence intensity (a.u.). In the case of “CTCTCTCTCTCACTGTCCACATCTCTCCAACAAGAGAAATCGGAGTCACCTAGTGCAG”, the binding signal is reported as 8860 fluorescence intensity (a.u.). With “TCCGATAACTCCACCGCCGCTCCACCTCCAAGTCCAGTTACGGAGTCACCTAGTGCAG” the binding signal was 16300 fluorescence intensity (a.u.). In the case of “ATGACACCAACGAATCGATTTTATGTATCCGCCATTGCCTCGGAGTCACCTAGTGCAG”, the binding signal is reported as 9580 fluorescence intensity (a.u.). “GTTGACGATTAAAACAAACCAGTGTTTGACTTTCTTACTGCGGAGTCACCTAGTGCAG” was tested, and the binding signal was 8150 fluorescence intensity (a.u.). In the case of “GTCCTGCTGCTTCCGCCGCCGCCACCGTCCTGCTGCTTCCCGGAGTCACCTAGTGCAG”, the binding signal is reported as 9500 fluorescence intensity (a.u.). For “GTCCAACTGTCAGTGTGTGTGTGTCACGCGTTCTTCTGACCGGAGTCACCTAGTGCAG”, the binding signal was 10700 fluorescence intensity (a.u.). “TGACTGATTCTTCTTTGTTGACTTTGTTTTTATAACCTTTCGGAGTCACCTAGTGCAG” was tested, and the binding signal was 12600 fluorescence intensity (a.u.). “ATCCTCATCGATCAAAGGTGCTCCGTCGCTTCATGTTCAACGGAGTCACCTAGTGCAG” was tested, and the binding signal was 8170 fluorescence intensity (a.u.). In the case of “CGGCCTGCCTGGCTAGCGTTTCGGCCCATCGATCCGCGCGCGGAGTCACCTAGTGCAG”, the binding signal is reported as 8510 fluorescence intensity (a.u.). With “GATTTTTTTCTGCTGAATTTGTTCGTCCGTTTCAGTTGGACGGAGTCACCTAGTGCAG” the binding signal was 9690 fluorescence intensity (a.u.). “GGTGTTTGGTTGGAGGGATTAAAGTGGGGCTAAACTTTAGCGGAGTCACCTAGTGCAG” was tested, and the binding signal was 9950 fluorescence intensity (a.u.). “GCTTACTTAGGCTGCTCGCTCACGACTTGTTCCTTCCTTACGGAGTCACCTAGTGCAG” was tested, and the binding signal was 9820 fluorescence intensity (a.u.). For “CTATTACAGGTGCGGTGGGCGGTCTCTTGCTTCTTACAATCGGAGTCACCTAGTGCAG”, the binding signal was 12800 fluorescence intensity (a.u.). For “CTCTCCTCCCTATTCTTTTCCTTTCCTCTCCTTTCCTTTCCGGAGTCACCTAGTGCAG”, the binding signal was 8870 fluorescence intensity (a.u.). “GCGAGCAAGATTGGAATCAGCGTGGTGGTGGTAGGGGAGGCGGAGTCACCTAGTGCAG” was tested, and the binding signal was 9480 fluorescence intensity (a.u.). With “AGCTCGTAATTTGTATGGGTTGTAAATTGATTTCATGTAACGGAGTCACCTAGTGCAG” the binding signal was 9890 fluorescence intensity (a.u.). In the case of “AGCCAATCCCCAGCCTGTCCATTTGAATCATTACATTTAGCGGAGTCACCTAGTGCAG”, the binding signal is reported as 8160 fluorescence intensity (a.u.). For “GTTCCAGCCGCGTTTCCTCTCGCGGCGGCCTCGCCATTTCCGGAGTCACCTAGTGCAG”, the binding signal was 9070 fluorescence intensity (a.u.). “ATTCTGTAACCCGCTGCGGGCAACGGCCGGACGTGCAATCCGGAGTCACCTAGTGCAG” was tested, and the binding signal was 9630 fluorescence intensity (a.u.). For “AAAAGAAGCAAGGACCTTCCCTACTCAACTCACTCATTCACGGAGTCACCTAGTGCAG”, the binding signal was 8120 fluorescence intensity (a.u.).
